According to patent US6593108B1 (priority 1999, dated 2003):
Results are given in words; binding and its absence hold for the method and conditions named. Some results given as binding are weak or reduced against the parent protein; the word gives no strength.

By UniProt entry, the sequences of proteins in these tests, tags left out. Where a name states a change or a piece, a line headed by the entry shows the natural chain unless it says otherwise.
UniProt Q969V1: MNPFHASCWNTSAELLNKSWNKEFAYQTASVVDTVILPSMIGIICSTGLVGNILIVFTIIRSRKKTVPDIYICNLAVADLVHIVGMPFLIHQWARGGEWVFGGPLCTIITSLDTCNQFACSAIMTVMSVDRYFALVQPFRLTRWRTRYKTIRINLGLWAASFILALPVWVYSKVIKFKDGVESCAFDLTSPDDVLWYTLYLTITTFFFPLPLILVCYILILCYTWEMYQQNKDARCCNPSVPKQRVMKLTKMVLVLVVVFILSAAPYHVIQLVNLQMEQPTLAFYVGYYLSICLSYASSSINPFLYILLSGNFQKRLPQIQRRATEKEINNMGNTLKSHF
UniProt P20382: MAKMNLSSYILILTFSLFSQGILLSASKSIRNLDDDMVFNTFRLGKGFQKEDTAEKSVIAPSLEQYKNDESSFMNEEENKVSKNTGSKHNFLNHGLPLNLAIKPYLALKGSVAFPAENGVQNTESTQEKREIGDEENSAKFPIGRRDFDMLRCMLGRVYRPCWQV

Target: HG67 (melanin-concentrating hormone receptor 2) (human) (UniProt Q969V1)
Test: radioligand binding to transfected HEK293T monolayer cells, 100 pM [125I]-MCH

- binding: binds
Substance: [125I]-MCH (from UniProt P20382 147-165) (peptide)
